The values that follow come from patent publication US20110059051.

By UniProt entry, the sequences of proteins in these tests, tags left out. Where a name states a change or a piece, a line headed by the entry shows the natural chain unless it says otherwise.
UniProt A2A935: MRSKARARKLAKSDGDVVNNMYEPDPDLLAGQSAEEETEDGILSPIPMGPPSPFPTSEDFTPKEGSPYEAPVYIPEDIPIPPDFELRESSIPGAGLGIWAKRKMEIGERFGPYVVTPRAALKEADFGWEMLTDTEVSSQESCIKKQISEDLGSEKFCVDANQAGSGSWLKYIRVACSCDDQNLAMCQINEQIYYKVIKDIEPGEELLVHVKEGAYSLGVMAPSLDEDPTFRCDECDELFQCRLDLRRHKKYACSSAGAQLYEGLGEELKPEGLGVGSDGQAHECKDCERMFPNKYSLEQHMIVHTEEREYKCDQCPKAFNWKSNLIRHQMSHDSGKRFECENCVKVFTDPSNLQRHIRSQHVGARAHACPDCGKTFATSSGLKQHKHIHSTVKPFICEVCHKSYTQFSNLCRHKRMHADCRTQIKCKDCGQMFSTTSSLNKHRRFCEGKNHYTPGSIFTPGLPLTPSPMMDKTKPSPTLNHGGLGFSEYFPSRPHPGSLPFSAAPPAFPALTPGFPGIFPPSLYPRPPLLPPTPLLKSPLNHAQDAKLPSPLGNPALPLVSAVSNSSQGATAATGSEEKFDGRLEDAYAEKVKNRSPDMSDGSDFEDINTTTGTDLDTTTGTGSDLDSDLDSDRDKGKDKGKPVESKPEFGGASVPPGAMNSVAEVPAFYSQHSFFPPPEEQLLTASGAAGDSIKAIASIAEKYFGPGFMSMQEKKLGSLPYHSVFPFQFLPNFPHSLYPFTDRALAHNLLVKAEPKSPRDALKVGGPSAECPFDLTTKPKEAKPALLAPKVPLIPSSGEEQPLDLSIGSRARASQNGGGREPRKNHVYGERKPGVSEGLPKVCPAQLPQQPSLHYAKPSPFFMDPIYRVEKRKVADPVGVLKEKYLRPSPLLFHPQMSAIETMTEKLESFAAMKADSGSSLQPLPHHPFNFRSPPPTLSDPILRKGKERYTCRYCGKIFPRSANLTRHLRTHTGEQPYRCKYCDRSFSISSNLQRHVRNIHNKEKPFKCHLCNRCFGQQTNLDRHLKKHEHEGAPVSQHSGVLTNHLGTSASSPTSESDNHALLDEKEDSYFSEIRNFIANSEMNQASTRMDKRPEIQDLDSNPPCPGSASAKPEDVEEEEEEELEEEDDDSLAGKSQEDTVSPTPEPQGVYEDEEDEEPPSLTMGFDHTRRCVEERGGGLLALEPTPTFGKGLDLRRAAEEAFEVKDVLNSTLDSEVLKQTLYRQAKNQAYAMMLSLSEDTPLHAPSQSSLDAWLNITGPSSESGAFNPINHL

For at least one entry, the source does not settle the construct or the ends of the probe. Tags and fusion partners may be left off the protein sequences shown.

The data set has as its target T1, PRDM16 wild type (Mus musculus) (UniProt A2A935).
T1 sequence (limits assumed): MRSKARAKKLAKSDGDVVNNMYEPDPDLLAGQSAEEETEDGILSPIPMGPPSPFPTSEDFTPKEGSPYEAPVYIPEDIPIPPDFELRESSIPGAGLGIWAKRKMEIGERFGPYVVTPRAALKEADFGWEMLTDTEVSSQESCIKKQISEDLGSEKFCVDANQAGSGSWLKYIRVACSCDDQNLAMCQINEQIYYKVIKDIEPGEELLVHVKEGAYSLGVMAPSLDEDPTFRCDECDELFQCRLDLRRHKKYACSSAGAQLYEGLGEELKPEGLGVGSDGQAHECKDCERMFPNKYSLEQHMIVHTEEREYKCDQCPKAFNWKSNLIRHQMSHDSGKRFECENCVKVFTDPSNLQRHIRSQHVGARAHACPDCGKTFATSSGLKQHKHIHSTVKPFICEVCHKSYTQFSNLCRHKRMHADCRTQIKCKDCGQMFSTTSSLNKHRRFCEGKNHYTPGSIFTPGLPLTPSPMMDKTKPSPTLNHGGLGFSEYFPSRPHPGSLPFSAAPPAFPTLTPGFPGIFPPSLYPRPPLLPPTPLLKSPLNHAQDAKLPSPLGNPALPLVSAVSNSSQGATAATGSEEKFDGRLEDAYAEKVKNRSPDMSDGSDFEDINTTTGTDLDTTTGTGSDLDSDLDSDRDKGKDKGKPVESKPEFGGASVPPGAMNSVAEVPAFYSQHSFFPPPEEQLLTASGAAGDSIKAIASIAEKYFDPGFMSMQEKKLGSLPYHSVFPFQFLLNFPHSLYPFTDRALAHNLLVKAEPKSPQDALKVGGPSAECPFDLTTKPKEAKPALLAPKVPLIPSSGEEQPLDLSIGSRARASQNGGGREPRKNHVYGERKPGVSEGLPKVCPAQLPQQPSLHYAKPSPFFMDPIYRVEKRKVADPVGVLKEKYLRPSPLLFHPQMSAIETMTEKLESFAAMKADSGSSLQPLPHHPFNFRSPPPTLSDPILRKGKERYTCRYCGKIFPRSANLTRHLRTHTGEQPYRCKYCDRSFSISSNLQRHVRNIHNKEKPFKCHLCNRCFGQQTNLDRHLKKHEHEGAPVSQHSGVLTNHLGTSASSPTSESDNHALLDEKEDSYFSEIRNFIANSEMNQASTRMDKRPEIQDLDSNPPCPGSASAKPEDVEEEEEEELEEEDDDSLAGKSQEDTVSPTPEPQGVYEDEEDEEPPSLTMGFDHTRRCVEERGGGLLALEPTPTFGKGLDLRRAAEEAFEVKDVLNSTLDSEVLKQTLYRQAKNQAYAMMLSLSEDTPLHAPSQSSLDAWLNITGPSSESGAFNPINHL
The data set is described as follows: EMSA. Particulars: 10 mM Tris-HCl pH 7.5, 50 mM NaCl, 1 mM MgCl2, poly(dI-dC); 5 fmol probe, unlabeled probe competition with 50 or 500 fmol; protein translated in vitro; label: 32P end label.

As for “GATCCGACAAGATAAGATAAGGATCTATAAGAAGATGAGGTATG (double strand) [PRDM16 consensus binding site EMSA probe]”, the binding result is reported as “binds”.
